The list shows only some results of the screen, not a fair sample: it gathers tests that were run many times, whatever their T/C, doses with no T/C, and many T/C values between a quarter and a half above the control. Further doses and runs are listed elsewhere. T/C: endpoint of the treated group in % of that of the vehicle group. Some doses have a count of surviving animals in place of a T/C: the source holds a T/C of zero for them, seemingly a mark for toxic or unscored doses. Some survivor counts are full or nearly so, which does not show that the dose was tolerated: the source hardly ever lists a survival T/C far under the control, and the zero likely stands for such cases as well. Survivors were counted at the toxicity check, usually on the fifth day, unless a day is given; later deaths do not show. Schedules are NCI's codes, taken here to give the interval after Q, in days (D) or hours (H), and the number of doses after X. Some entries were tested several times; their values stand side by side, smallest first. Where survival is the endpoint, this PubChem deposit counts one and a half times the control or more as active, and values a quarter to a half above the control carry no call in these data; other NCI protocols may use other cut-offs. Some T/C values are followed by the survivors on the day toxicity was checked, most often the fifth; where none is given, no animal had died by that day.
Tested on: P388 leukemia ip, CD2F1 mice, survival T/C
Experiment: NCI In Vivo Anticancer Drug Screen. Data for tumor model P388 Leukemia (intraperitoneal) in CD2F1 (CDF1) mice
Conditions: T/C endpoint: median survival time, higher T/C = longer survival
[1] = dose: 50.0 mg/kg/injection, schedule: Q01DX005 (ip), vehicle: saline with Tween-80
[2] = dose: 100.0 mg/kg/injection, schedule: Q01DX005 (ip), vehicle: saline with Tween-80
[3] = dose: 200.0 mg/kg/injection, schedule: Q01DX005 (ip), vehicle: saline with Tween-80
[4] = dose: 50.0 mg/kg/injection, schedule: Q01DX005 (ip), vehicle: saline
[5] = dose: 100.0 mg/kg/injection, schedule: Q01DX005 (ip), vehicle: saline
[6] = dose: 200.0 mg/kg/injection, schedule: Q01DX005 (ip), vehicle: saline

SMILES: O=C(Nc1cccc2ccccc12)c1cc2c(cc1Br)OCO2
- survivor count (dose: 100.0 mg/kg/injection, schedule: Q01DX009 (ip), vehicle: distilled water + Tween-80): 6 of 6

SMILES: O=C(O)C1CSC(c2ccncc2)N1 (stereo unspecified)
- survivor count (dose: 100.0 mg/kg/injection, schedule: Q01DX009 (ip), vehicle: saline): 6 of 6

SMILES: CCOC(=O)C1=C(C(=O)c2ccc(OC)cc2)C(c2ccc(Cl)cc2Cl)C(C(=O)c2ccc(OC)cc2)=C(C(=O)OCC)N1
- survivor count (dose: 120.0 mg/kg/injection, schedule: Q01DX005 (ip), vehicle: saline with Tween-80): 6 of 6

SMILES: Cc1ccc(C)c(C(=O)/C=C/C(=O)O)c1
- T/C (dose: 25.0 mg/kg/injection, schedule: Q01DX005 (ip), vehicle: saline with Tween-80): 126 % of control
- T/C [1]: 134 % of control
- T/C [2]: 125 and 140 % of control [4 of 5 alive]
- survivor count [2]: 0 of 6
- survivor count [3]: 0 of 5, 0 of 6, 2 of 6

SMILES: S=C(S)N1CCCC1
- survivor count (dose: 200.0 mg/kg/injection, schedule: Q01DX009 (ip), vehicle: saline): 5 of 6

SMILES: COc1cc(NCCCCCNC(C)C)c2ncccc2c1
- survivor count [1]: 1 of 5
- survivor count [2]: 0 of 5
- survivor count [3]: 0 of 5

SMILES: COc1cccc(/C=C/C(=O)C(CN(C)C)CN(C)C)c1
- survivor count (dose: 25.0 mg/kg/injection, schedule: Q01DX005 (ip), vehicle: saline): 0 of 6
- survivor count [4]: 0 of 6
- survivor count [5]: 0 of 6
- survivor count [6]: 0 of 6

SMILES: CN1CCC/C1=N\C(=Nc1ccccc1)N1CCCC1
- survivor count [4]: 0 of 6
- survivor count [5]: 0 of 6
- survivor count [6]: 0 of 6

SMILES: c1ccc2c(c1)[nH]c1c2c(N2CCOCC2)nn2cnnc12
- survivor count (dose: 200.0 mg/kg/injection, schedule: Q01DX005 (ip), vehicle: Klucel (hydroxypropylcellulose) (HPC)): 2 of 6

SMILES: CN1CCCN2CCCN(C)P12
- survivor count [4]: 2 of 6
- survivor count [5]: 0 of 6
- survivor count [6]: 0 of 6

SMILES: NC(=O)C(CC(=O)O)NC(=O)OCc1ccccc1 (stereo unspecified)
- T/C (dose: 66.0 mg/kg/injection, schedule: Q01DX009 (ip), vehicle: other): 128 % of control
- T/C (dose: 100.0 mg/kg/injection, schedule: Q01DX009 (ip), vehicle: other): 127 % of control

SMILES: Fc1ccc(CSC(=S)Nc2ccc(F)c(F)c2)cc1
- T/C (dose: 100.0 mg/kg/injection, schedule: Q01DX009 (ip), vehicle: Klucel (hydroxypropylcellulose) (HPC)): 129 % of control
- T/C (dose: 200.0 mg/kg/injection, schedule: Q01DX009 (ip), vehicle: Klucel (hydroxypropylcellulose) (HPC)): 131 % of control

SMILES: CN(CC(N)=O)C(=O)N(CCCl)N=O
- T/C (dose: 60.0 mg/kg/injection, schedule: Q01DX005 (ip), vehicle: saline with Tween-80): 140 % of control
- survivor count (dose: 240.0 mg/kg/injection, schedule: Q01DX005 (ip), vehicle: saline with Tween-80): 5 of 6

SMILES: CCCC(CCC)(C(=O)Nc1ccc2nc(C)cc(N)c2c1)C(=O)Nc1ccc2nc(C)cc(N)c2c1
- survivor count [3]: 2 of 5

SMILES: CC1CCC2N(C1)CC1C3(O)CC4(O)C(CCC5C(=O)C(O)CCC54C)C3(O)CC(O)C1(O)C2(C)O (stereo unspecified)
- survivor count (dose: 15.0 mg/kg/injection, schedule: Q01DX005 (ip), vehicle: Klucel (hydroxypropylcellulose) (HPC)): 2 of 6
- survivor count (dose: 30.0 mg/kg/injection, schedule: Q01DX005 (ip), vehicle: Klucel (hydroxypropylcellulose) (HPC)): 0 of 6
- survivor count (dose: 60.0 mg/kg/injection, schedule: Q01DX005 (ip), vehicle: Klucel (hydroxypropylcellulose) (HPC)): 0 of 6
- survivor count (dose: 120.0 mg/kg/injection, schedule: Q01DX005 (ip), vehicle: Klucel (hydroxypropylcellulose) (HPC)): 0 of 6
- survivor count (dose: 240.0 mg/kg/injection, schedule: Q01DX005 (ip), vehicle: Klucel (hydroxypropylcellulose) (HPC)): 0 of 6

SMILES: O=C(NC(CCS(=O)(=O)NCc1ccc(S(=O)(=O)F)cc1)C(=O)OCc1ccccc1)OCc1ccccc1 (stereo unspecified)
- survivor count (dose: 50.0 mg/kg/injection, schedule: Q01DX009 (ip), vehicle: other): 4 of 6

— PubChem BioAssay AID330 (DTP/NCI, 2004)
